Reference: PubChem BioAssay AID1224828 (NIAID, 2016)
In all, the deposit lists about 17,000 reagents; this is a random part of them. 762 of all reagents (4.5%) were called active. 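Active calls include both raised and lowered p65 entry, mostly lowered; wells with fewer than 50 cells lack a z-score.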 Raw values are not corrected between plates. Reagents against one gene are numbered here. No sequences are given here.

Test: 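Knock-downs that increase or decrease LPS-induced p65 nuclear translocation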 (primary screen)
Cell system: mouse RAW264.7 G9 macrophage reporter cells (GFP-p65, Tnf promoter-mCherry)
Reagents: siRNA pool against mouse genes, 100 nM
Timing: 2 days siRNA transfection, then 40 min LPS before fixation
Treatment: LPS (Salmonella minnesota R595) at 10 ng/ml
Measured: 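Imaged p65 nuclear translocation ratio, normalised to the plate median, converted to robust z-scores and averaged across two replicates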
Direction: p65 translocation robust z-score: higher = more nuclear NF-kappaB p65 after LPS than the plate median; nuclear/cytoplasmic p65 ratio: higher = more nuclear NF-kappaB p65
Hit rule: 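Called active when z exceeds 3.3 or falls under -1.56 (median of Tlr4 controls), giving activity score of at least 50; no calls for control wells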
Meaning of the calls: active = hit (p65 shift raised or lowered); inactive = no clear change

no.	Gene	reagent	p65 translocation robust z-score	nuclear/cytoplasmic p65 ratio, rep 1	nuclear/cytoplasmic p65 ratio, rep 2	low cell count flag	Outcome
1	Acat1	1	0.81	1.89	1.59	enough cells to score	inactive
2	Pcsk7	1	-0.83	1.37	1.28	enough cells to score	inactive
3	Xab2	1		1.19	1.29	fewer than 50 cells per well; well left out of scoring	inactive
4	Defb6	1	-0.74	1.37	1.53	enough cells to score	inactive
5	Npy2r	1	0.38	1.52	1.68	enough cells to score	inactive
6	Or8a1b	1		1.52	1.24	fewer than 50 cells per well; well left out of scoring	inactive
7	Tle5	1	0.3	1.61	1.77	enough cells to score	inactive
8	Dynll1	1	-0.81	1.43	1.26	enough cells to score	inactive
9	P2rx7	1	0.89	1.5	1.59	enough cells to score	inactive
10	Atp2a3	1	-0.69	1.55	1.48	enough cells to score	inactive
11	Aspscr1	1	0.71	1.74	1.7	enough cells to score	inactive
12	Gm4894	1	-1.32	1.11	1.34	enough cells to score	inactive
13	Eya1	1	0.25	1.57	1.33	enough cells to score	inactive
14	Slc52a3	1		1.39	2.47	fewer than 50 cells per well; well left out of scoring	inactive
15	Snrpc	1	0.77	1.25	1.32	enough cells to score	inactive
16	Dach2	1		1.49	1.24	fewer than 50 cells per well; well left out of scoring	inactive
17	Ccp110	1	0.01	1.44	1.46	enough cells to score	inactive
18	Sdf2l1	1	1.19	1.52	1.4	enough cells to score	inactive
19	Sh3pxd2a	1	-0.45	1.49	1.48	enough cells to score	inactive
20	Sh3pxd2a	2		2.12	1.7	fewer than 50 cells per well; well left out of scoring	inactive
21	Gpx5	1	2.33	1.41	1.89	enough cells to score	inactive
22	Col18a1	1	0.3	1.45	1.47	enough cells to score	inactive
23	Evi5	1	0.71	1.68	1.33	enough cells to score	inactive
24	Thada	1	0.71	1.55	1.54	enough cells to score	inactive
25	Thada	2	0.63	1.49	1.66	enough cells to score	inactive
26	Usp54	1	-1.03	1.25	1.12	enough cells to score	inactive
27	Usp54	2	1.75	1.67	1.72	enough cells to score	inactive
28	Polr1c	1	0.63	1.53	1.27	enough cells to score	inactive
29	Mien1	1	-1.43	1.18	1.37	enough cells to score	inactive
30	Bloc1s6	1		1.18	1.07	fewer than 50 cells per well; well left out of scoring	inactive
31	Plp1	1	-0.24	1.41	1.42	enough cells to score	inactive
32	Fut8	1	0.36	1.45	1.45	enough cells to score	inactive
33	Slc17a2	1	0.61	1.8	1.76	enough cells to score	inactive
34	Jph1	1	0.3	1.46	1.48	enough cells to score	inactive
35	Mkks	1	0.84	1.53	1.47	enough cells to score	inactive
36	Oxnad1	1	0.12	1.5	1.97	enough cells to score	inactive
37	Liat1	1	-0.33	1.62	1.53	enough cells to score	inactive
38	Zic5	1	0.68	1.48	1.34	enough cells to score	inactive
39	Harbi1	1	-0.77	1.47	1.43	enough cells to score	inactive
40	Or5a3	1	1.93	1.91	1.66	enough cells to score	inactive
41	Dph5	1	0.7	1.45	1.59	enough cells to score	inactive
42	B9d1	1	0.27	1.4	1.51	enough cells to score	inactive
43	Rgs7bp	1	-0.64	1.48	1.68	enough cells to score	inactive
44	Defa21	1		1.29	1.27	fewer than 50 cells per well; well left out of scoring	inactive
45	Tpgs1	1		1.04	1.35	fewer than 50 cells per well; well left out of scoring	inactive
46	Actc1	1	0.89	1.85	1.66	enough cells to score	inactive
47	Eif4g2	1	-0.87	1.39	1.21	enough cells to score	inactive
48	Slc25a35	1		1.41	1.58	fewer than 50 cells per well; well left out of scoring	inactive
49	Acat3	1	-0.34	1.59	1.54	enough cells to score	inactive
50	Or8k22	1	-0.74	1.51	1.5	enough cells to score	inactive
51	Or2g25	1	-0.91	1.54	1.42	enough cells to score	inactive
52	Or1e1c	1	1.23	1.69	1.65	enough cells to score	inactive
53	Prkrip1	1	0.06	1.39	1.22	enough cells to score	inactive
54	Tm4sf20	1	-1.64	1.2	1.18	enough cells to score	active
55	Cplx2	1	-1.7	1.26	1.58	enough cells to score	active
56	Fbxl12os	1	1.9	1.51	1.82	enough cells to score	inactive
57	Polr2a	1		0	1.1	fewer than 50 cells per well; well left out of scoring	inactive
58	Chat	1	-1.07	1.31	1.24	enough cells to score	inactive
59	Tmem128	1	1.65	1.62	1.67	enough cells to score	inactive

Already shown: 5 of the entries above.
no.	Gene	reagent	p65 translocation robust z-score	nuclear/cytoplasmic p65 ratio, rep 1	nuclear/cytoplasmic p65 ratio, rep 2	low cell count flag	Outcome
25	Thada	2	0.63	1.49	1.66	enough cells to score	inactive
26	Usp54	1	-1.03	1.25	1.12	enough cells to score	inactive
27	Usp54	2	1.75	1.67	1.72	enough cells to score	inactive
28	Polr1c	1	0.63	1.53	1.27	enough cells to score	inactive
29	Mien1	1	-1.43	1.18	1.37	enough cells to score	inactive
